From PMC9943647, “Structures of pMV158 replication initiator RepB with and without DNA reveal a flexible dual-function protein” (Nucleic Acids Research, 2023) come the findings set out here.

The experiment has as its target His-OBD, His-tagged N-terminal origin binding domain of RepB (pMV158) (streptococcal plasmid pMV158) (UniProt P13921). Briefly: crystal structure; His-OBD with 23-bp dsDNA 23AB (DDRI and DDRII) in a 2:1 ratio; sitting drop, 50 mM Tris-HCl pH 8.0, 50 mM MgCl2, 23% PEG3350; space group P21, 3.0 A; two OBDs on each DNA; both purified.

No constants are given. Whether binding was seen depends on the method and setting. Sequences can lack the tags named with a protein.

B1: His-OBD, His-tagged N-terminal origin binding domain of RepB (pMV158) (domain or fragment, UniProt P13921 1-132)
chain: MAKEKARYFTFLLYPESIPSDWELKLETLGVPMAISPLHDKDKSSIKGQKYKKAHYHVLYIAKNPVTADSVRKKIKLLLGEKSLAMVQVVLNVENMYLYLTHESKDAIAKKKHVYDKADIKLINNFDIDRYV
In the case of B1, the binding result was “no binding”.
